{
  "sequences": {"note": "By UniProt entry, the sequences of proteins in these tests, tags left out. Where a name states a change or a piece, a line headed by the entry shows the natural chain unless it says otherwise. Chains listed by the source or under a name are the forms on record and can include a tag or linker.", "UniProt O35973": "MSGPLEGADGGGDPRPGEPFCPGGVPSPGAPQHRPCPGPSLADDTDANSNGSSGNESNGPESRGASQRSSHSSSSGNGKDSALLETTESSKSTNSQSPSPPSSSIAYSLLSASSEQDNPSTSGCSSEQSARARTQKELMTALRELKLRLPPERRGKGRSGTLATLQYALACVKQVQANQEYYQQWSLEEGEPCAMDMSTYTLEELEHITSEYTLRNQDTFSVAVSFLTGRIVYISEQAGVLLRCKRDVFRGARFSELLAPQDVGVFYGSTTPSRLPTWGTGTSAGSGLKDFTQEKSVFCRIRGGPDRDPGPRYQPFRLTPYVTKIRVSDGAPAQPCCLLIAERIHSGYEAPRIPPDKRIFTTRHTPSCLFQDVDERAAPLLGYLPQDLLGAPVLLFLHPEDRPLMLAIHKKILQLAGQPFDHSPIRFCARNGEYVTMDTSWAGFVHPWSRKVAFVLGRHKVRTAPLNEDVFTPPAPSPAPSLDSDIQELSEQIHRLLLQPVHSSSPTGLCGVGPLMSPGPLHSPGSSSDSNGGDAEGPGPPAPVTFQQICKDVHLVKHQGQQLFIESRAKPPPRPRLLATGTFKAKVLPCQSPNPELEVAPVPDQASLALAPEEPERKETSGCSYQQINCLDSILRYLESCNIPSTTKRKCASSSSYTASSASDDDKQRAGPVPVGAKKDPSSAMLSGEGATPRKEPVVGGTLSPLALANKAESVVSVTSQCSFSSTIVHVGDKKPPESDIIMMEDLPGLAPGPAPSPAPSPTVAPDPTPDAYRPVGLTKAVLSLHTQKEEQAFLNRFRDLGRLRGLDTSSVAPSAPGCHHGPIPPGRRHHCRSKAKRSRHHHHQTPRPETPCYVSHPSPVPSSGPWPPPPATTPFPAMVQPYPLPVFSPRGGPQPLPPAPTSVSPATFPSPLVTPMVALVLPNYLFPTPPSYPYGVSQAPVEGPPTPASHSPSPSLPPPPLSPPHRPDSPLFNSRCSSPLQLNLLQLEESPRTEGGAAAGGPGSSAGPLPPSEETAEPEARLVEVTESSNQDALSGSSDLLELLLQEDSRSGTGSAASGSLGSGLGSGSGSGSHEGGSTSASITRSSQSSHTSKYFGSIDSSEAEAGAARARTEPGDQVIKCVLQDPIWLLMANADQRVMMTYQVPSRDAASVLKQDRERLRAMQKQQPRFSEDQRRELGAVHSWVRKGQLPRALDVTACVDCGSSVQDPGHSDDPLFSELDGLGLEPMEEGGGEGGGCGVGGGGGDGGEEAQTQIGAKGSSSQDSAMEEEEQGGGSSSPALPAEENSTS", "HA-tagged PER1, 178–324 aa deletion (O35973, form named)": "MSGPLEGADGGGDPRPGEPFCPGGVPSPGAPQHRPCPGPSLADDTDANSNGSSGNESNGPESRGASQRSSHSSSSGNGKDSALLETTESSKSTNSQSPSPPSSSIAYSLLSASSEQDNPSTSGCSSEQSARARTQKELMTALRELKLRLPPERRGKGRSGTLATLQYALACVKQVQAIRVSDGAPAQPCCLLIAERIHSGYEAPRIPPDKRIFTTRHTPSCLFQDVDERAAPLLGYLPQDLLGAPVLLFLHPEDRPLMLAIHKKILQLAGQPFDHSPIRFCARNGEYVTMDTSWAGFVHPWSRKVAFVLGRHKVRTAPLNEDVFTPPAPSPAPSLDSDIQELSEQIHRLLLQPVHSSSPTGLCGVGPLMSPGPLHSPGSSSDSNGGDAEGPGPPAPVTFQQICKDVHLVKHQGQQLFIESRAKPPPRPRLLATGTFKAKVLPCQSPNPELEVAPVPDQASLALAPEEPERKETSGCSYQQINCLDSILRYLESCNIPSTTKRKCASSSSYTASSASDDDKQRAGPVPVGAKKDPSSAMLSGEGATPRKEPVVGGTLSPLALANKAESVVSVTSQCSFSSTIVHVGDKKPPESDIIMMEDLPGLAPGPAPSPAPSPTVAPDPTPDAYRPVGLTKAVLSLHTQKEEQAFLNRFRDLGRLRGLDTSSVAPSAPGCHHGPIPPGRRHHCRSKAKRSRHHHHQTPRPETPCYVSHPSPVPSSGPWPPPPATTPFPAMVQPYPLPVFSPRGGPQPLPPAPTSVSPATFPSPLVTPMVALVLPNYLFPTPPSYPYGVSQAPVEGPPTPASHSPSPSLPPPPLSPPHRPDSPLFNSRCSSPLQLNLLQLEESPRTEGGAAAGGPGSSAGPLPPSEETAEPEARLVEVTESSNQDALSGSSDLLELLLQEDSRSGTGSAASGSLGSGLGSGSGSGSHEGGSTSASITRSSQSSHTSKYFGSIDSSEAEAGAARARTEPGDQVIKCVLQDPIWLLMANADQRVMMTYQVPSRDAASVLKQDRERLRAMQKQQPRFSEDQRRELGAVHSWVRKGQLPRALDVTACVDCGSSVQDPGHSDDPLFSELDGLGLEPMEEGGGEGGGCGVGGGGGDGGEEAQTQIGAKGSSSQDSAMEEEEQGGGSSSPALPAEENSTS"},
  "source": "paper PMC7484554",
  "molecules": {"B1": {"name": "GPX1 (enzyme, UniProt P11352 1-201)", "chain": "MCAARLSAAAQSTVYAFSARPLTGGEPVSLGSLRGKVLLIENVASLUGTTIRDYTEMNDLQKRLGPRGLVVLGFPCNQFGHQENGKNEEILNSLKYVRPGGGFEPNFTLFEKCEVNGEKAHPLFTFLRNALPTPSDDPTALMTDPKYIIWSPVCRNDIAWNFEKFLVGPDGVPVRRYSRRFRTIDIEPDIETLLSQQSGNS", "modifications": "selenocysteine (46 aa)"}},
  "key": {"[1]": {"molecular_target": "T1, GPX1 (mouse (endogenous in liver and small intestine)) (UniProt P11352)", "T1 sequence (chain, selenocysteine (46 aa))": "B1 chain", "test": "co-IP; cytoplasmic extracts of WT mouse liver or small intestine at ZT1 or ZT13; lysis in 10 mM Tris-HCl pH 8.0, 420 mM NaCl, 1 mM EDTA, 0.5% NP-40; antibody overnight at 4 °C, Protein G-Sepharose 4B; western blot"}, "[2]": {"molecular_target": "T2, HA-tagged fragment of GPX1, amino acids 130–201 (mouse) (UniProt P11352)", "T2 sequence": "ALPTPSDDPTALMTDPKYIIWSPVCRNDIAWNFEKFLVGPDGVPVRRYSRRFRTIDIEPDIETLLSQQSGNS", "test": "co-IP; lysates of NIH-3T3 cells coexpressing HA-tagged fragments of GPX1 and a vector expressing PER1, immunoprecipitated with an anti-HA antibody; western blot"}, "[3]": {"molecular_target": "HA-tagged PER1 (mouse) (UniProt O35973)", "test": "co-IP; lysates of NIH-3T3 cells expressing HA-tagged PER1 or its mutant forms, immunoprecipitated with an anti-HA antibody; western blot"}, "[4]": {"molecular_target": "HA-tagged PER1, 178–324 aa deletion (mouse) (UniProt O35973)", "test": "co-IP; lysates of NIH-3T3 cells expressing HA-tagged PER1 or its mutant forms, immunoprecipitated with an anti-HA antibody; western blot"}},
  "note": "Results are given in words; binding and its absence hold for the method and conditions named. Binding seen in cells or lysates may run through a third protein. Some results given as binding are weak or reduced against the parent protein; the word gives no strength. For some of these results: Sequences can lack the tags named with a protein.",
  "data": [
    {"molecule": "PER1 (from UniProt O35973 1-1291)", "values": [
      {"measurement": "binding", "setting": "[1]", "value": "binds"}
    ]},
    {"molecule": "PER1 (from a vector expressing PER1) (from UniProt O35973 1-1291)", "values": [
      {"measurement": "binding", "setting": "[2]", "value": "binds"}
    ]},
    {"molecule": "B1", "values": [
      {"measurement": "binding", "setting": "[3]", "value": "binds"},
      {"measurement": "binding", "setting": "[4]", "value": "binds"}
    ]}
  ]
}
